Residue numbers refer to the chain shown, from its start. Results are given in words; binding and its absence hold for the method and conditions named. Binding seen in cells or lysates may run through a third protein. Some binding calls cover weakened binding; strength is not graded here. For part of these data: Where a sequence is shown, tags or fusion partners need not be part of it.
Key:
GST-WT-SCP1 = molecular target: T1, GST-WT-SCP1 (UniProt Q9GZU7); assay: pull-down; purified GST-WT-SCP1 incubated with cell lysates overexpressing AKT; western blotting; only the target purified
T1 sequence: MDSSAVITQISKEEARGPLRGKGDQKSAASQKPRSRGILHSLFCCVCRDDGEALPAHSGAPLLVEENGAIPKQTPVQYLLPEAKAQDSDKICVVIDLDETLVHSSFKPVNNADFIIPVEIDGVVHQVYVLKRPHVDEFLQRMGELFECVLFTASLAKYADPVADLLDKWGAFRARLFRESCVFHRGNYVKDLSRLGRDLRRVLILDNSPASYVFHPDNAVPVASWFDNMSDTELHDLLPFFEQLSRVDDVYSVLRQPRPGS

The chains behind the UniProt entries cited, without tags or fusion partners.
UniProt P31749: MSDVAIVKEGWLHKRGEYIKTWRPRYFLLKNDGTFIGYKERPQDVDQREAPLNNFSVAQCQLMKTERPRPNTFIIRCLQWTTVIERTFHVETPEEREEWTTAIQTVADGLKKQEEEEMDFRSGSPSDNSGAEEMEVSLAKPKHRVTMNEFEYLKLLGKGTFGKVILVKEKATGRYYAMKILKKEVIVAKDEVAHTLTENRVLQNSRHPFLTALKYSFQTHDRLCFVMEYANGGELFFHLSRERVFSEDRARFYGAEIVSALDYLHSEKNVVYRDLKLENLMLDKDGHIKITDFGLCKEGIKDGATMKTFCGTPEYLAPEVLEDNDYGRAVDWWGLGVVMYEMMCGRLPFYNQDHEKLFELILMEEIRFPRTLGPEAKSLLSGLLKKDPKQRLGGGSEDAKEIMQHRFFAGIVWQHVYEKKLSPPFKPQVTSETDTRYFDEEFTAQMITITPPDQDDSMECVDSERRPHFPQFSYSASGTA

[1] = molecular target: T2, SCP1, wild type, overexpressed (tag not stated for these experiments) (UniProt Q9GZU7); assay: co-IP; SCP1 or DN-SCP1 expressed with WT AKT1 or Myr-AKT in cells (Figure 5I); lysis in RIPA buffer, protein A and G beads, 4°C
T2 sequence (chain, palmitoylated in HEK293T cells (ABE assay); Cys44 and Cys45 the major sites): T1 sequence

[2] = molecular target: T3, DN-SCP1 (catalytically inactive SCP1, Asp96 to Glu), overexpressed (UniProt Q9GZU7); assay: as above
T3 sequence: T1 sequence with D96E

Measured: binding

AKT1, wild type, overexpressed (from UniProt P31749 1-480) (enzyme)
binds: all assays above
